From patent US20190110981A1, “Cannabinoid Patch” (LIFE TECH GLOBAL, LLC, priority 2017, published 2019)
Some results were stated once for a whole list of compounds, not compound by compound.

Assay: In vitro transdermal flux, human cadaver skin and Franz diffusion cell
Assay type: in vitro ADME
Details: reservoir patch, saturated ethanol/water about 70/30 with 25% THC oil; value at 24 hours (FIG. 2)
Source text: FIG. 1. In vitro cumulative flux (micrograms/cm^2) of cannabidiol (CBD) through skin versus time (hours).
FIG. 2. In vitro flux of tetrahydrocannabinol (THC) from ethanol/water, at each of the indicated ratios of ethanol/water.
The disclosure provides a graph of transdermal flux (FIG. 3). […] Alternatively, the oil contains CBD/THC in a 1:1 ratio (wt./wt.).
The following concerns reservoir patches. The composition inside the reservoir can have the consistency of a paste, but in an alternative embodiment, it can have the consistency of an oil, or it can have the consistency of a liquid, or it can have the consistency of a slurry. Parameters for FIG. 2 are as follows. Flux was allowed to occur for 24 hours, and FIG. 2 provides the value at 24 hours, […] The layers are 30 cm square and the hydrogel is one cm cubed or one milliliter. The layers have microporous membrane with […] pore size. The layers have occlusive heat seal around edges. There is a protective release liner. The embodiment can be made with or without silicone adhesive.

CCCCCc1cc(O)c2c(c1)OC(C)(C)[C@@H]1CCC(C)=C[C@@H]21 [THC, delta-9-tetrahydrocannabinol]
Cumulative flux of THC: at least 40 micrograms THC per cm^2
